Reference: article PMC7761126
Results are given in words; binding and its absence hold for the method and conditions named. In cells and extracts the contact can be indirect. These calls come from enrichment with a bait or labelling near it, and not all partners need be listed.

B1: GAIP interacting protein at C terminus (protein, UniProt Q9Z254 1-333)
chain: MPLGLGRRKKAPPLVENEEAEPSRSGLGVGEPGPLGGSGAGESQMGLPPPPASLRPRLVFHTQLAHGSPTGRIEGFTNVKELYGKIAEAFRLPAAEVMFCTLNTHKVDMDKLLGGQIGLEDFIFAHVKGQRKEVEVFKSEDALGLTITDNGAGYAFIKRIKEGSVIDHIQLISVGDMIEAINGQSLLGCRHYEVARLLKELPRGRTFTLKLTEPRKAFDMISQRSSGGHPGSGPQLGTGRGTLRLRSRGPATVEDLPSAFEEKAIEKVDDLLESYMGIRDTELAATMVELGKDKRNPDELAEALDERLGDFAFPDEFVFDVWGAIGDAKVGRY
B2: PRDX3 (enzyme, UniProt Q9Z0V6 63-257)
chain: TPAVTQHAPHFKGTAVVNGEFKELSLDDFKGKYLVLFFYPLDFTFVCPTEIVAFSDKANEFHDVNCEVVAVSVDSHFSHLAWINTPRKNGGLGHMNITLLSDLTKQISRDYGVLLESAGIALRGLFIIDPNGVIKHLSVNDLPVGRSVEEPLRLVKAFQFVETHGEVCPANWTPESPTIKPSPTASKEYFEKVHQ
B3: leucine-rich repeat in flightless 1 interaction protein 1 (protein, UniProt Q66HF9 1-738)
chain: MTSPEGAQNKEIDCLSPEAQRLAEARLAAKRAARAEAREIRMKELERQQKEVEERPDKDFAEKGSRNMPSLSAATLASLGGTSSRRGSGDTSISMDTEASIREIKDSLAEVEEKYKKAMVSNAQLDNEKTNFMYQVDTLKDMLLELEEQLAESQRQYEEKNKEFEREKHAHSILQFQFAEVKEALRQREEMLEKHGIILNSEIATNGETSDTVNDVGYQAPTKITKEELNALKAAGEGTLGKAKEVEVKKEIVEKVGQRETLQDSEQEQPKLNTGKDCVDRGVLHPGEKAENQRPVEDSALSPGPLAGAKCEQEVQSQDQENTSILKSPEQIESHEVTNKSDSRDSNSPEPSSCRGGLDSEVSGPTALGIKNQSENSMDSQGKENQEDLGKGSFEPRPDHVLGQTPEIDKVSCTDSRGTGGNHLEDVVQAGDTIVEDQVGTMASAEQSKSMENHIGRSLNDGLGQSSERELAHEAAELEEALTQSSQAGGENTVTEAEDAAVRDEKPLQADVQATPAAPTVQSGHQDTTGPGSTDTKHTSPHAKERNKAKSEQQAEALDSPQKKTKNKKKKNKKKKAAAPMETCKDANEESSCQDPDVGDGEEEERVQATDKKWAAETPELKEDPQSRPSGKQNDAEEDSGPAEGPTDVLDQNSLQCADGDISPVGRKGPQRDASQIGGEEGLVPSQHPGQADEKGIEGHSVDNSDLSGELGGFNSESGEQAREEVGNSKSKEDCTMS
B4: flightless I homologue (protein, UniProt Q5RKI5 1-1270)
chain: MEATGVLPFVRGVDLSGNDFKGGYFPENVKAMTSLRWLKLNRTGLCYLPEELAALQKLEHLSVSHNNLTTLHGELSSLPSLRAIVARANSLKNSGVPDDIFKLDDLSVLDLSHNQLTECPRELENAKNMLVLNLSHNSIDSIPNQLFINLTDLLYLDLSENRLESLPPQMRRLVHLQTLVLNGNPLLHAQLRQLPAMMALQTLHLRNTQRTQSNLPTSLEGLSNLSDVDLSCNDLTRVPECLYTLPNLHRLNLSSNQIAELSLCIDQWVHLETLNLSRNQLTSLPSAICKLTKLKKLYLNSNKLDFDGLPSGIGKLTSLEEFMAANNNLELIPESLCRCPKLRKLVLNKNRLVTLPEAIHFLTEIEVLDVRENPSLVMPPKPADHTAEWYNIDFSLQNQLRLAGASPATVAAAAAVGSGSKDPLARKMRLRRRKDSAQDVQAKQVLKGMSDVAQEKNKNQEESTDARAPGGKVRRWDQGLEKPRLDYSEFFTEDVGQLPGLTIWQIENFVPVLVEEAFHGKFYEADCYIVLKTFLDDSGSLNWEIYYWIGGEATLDKKACSAIHAVNLRNYLGAECRTAREEMGDESEGFLQVFDNDISYIEGGTASGFYTVEDTHYVTRMYRVYGKKNIKLEPVPLKGTSLDPRFVFLLDQGLDIYVWRGAQATLSNTTKARLFAEKMNKNERKGKAEITLLVQGQEPPEFWDVLGGEPSEIKKHVPDDFWPPQPKLYKVGLGLGYLELPQINYKLSVEHKKRPKVELMPGMRLLQSLLDTRCVYILDCWSDVFIWLGRKSPRLVRAAALKLGQELCGMLHRPRHTVVSRSLEGTEAQVFKAKFKNWDDVLTVDYTRNAEAVLQGPGISGKVKRDTEKKDQMKADLTALFLPRQPPMPLAEAEQLMEEWNEDLDGMEGFVLEGRKFTRLAEEEFGHFYTQDCYVFLCRYWVPVEYEEEEKPEDKEGKASAEGREEEEAAAETEEKQPEEDFQCIVYFWQGREASNMGWLTFTFSLQKKFESLFPGKLEVVRMTQQQENPKFLSHFKRKFIIHRGKRKVTQTLQPTLYQIRTNGSALCTRCIQINTDSSLLNSEFCFILKVPFESEDNQGIVYAWVGRASDPDEAKLAEDILNTMFDPSYSKQVINEGEEPENFFWVGIGAQKPYDDDAEYMKHTRLFRCSNEKGYFAVTEKCSDFCQDDLADDDIMLLDNGQEVYMWVGTQTSQVEIKLSLKACQVYIQHTRSKEHERPRRLRLVRKGNEQRAFTRCFHAWSTFRQAPA
B5: peroxiredoxin (PRDX) 1 (enzyme, UniProt Q63716 1-199)
chain: MSSGNAKIGHPAPSFKATAVMPDGQFKDISLSDYKGKYVVFFFYPLDFTFVCPTEIIAFSDRAEEFKKLNCQVIGASVDSHFCHLAWINTPKKQGGLGPMNIPLVSDPKRTIAQDYGVLKADEGISFRGLFIIDDKGILRQITINDLPVGRSVDEILRLVQAFQFTDKHGEVCPAGWKPGSDTIKPDVNKSKEYFSKQK
B6: PRDX2 (enzyme, UniProt P35704 1-198)
chain: MASGNAHIGKPAPDFTGTAVVDGAFKEIKLSDYRGKYVVLFFYPLDFTFVCPTEIIAFSDHAEDFRKLGCEVLGVSVDSQFTHLAWINTPRKEGGLGPLNIPLLADVTKSLSQNYGVLKNDEGIAYRGLFIIDAKGVLRQITVNDLPVGRSVDEALRLVQAFQYTDEHGEVCPAGWKPGSDTIKPNVDDSKEYFSKHN
B7: caytaxin (protein, UniProt Q1M168 1-372)
chain: MGTTEATLRMENVDVRDEWQDEDLPRPLPEDTGEDHLGGTVEDSSSPPSTLNLSGAHRKRKTLVAPEINISLDQSEGSLLSDDFLDTPDDLDINVDDIETPDETDSLEFLGNGNELEWEDDTPVATAKNMPGDSADLFGDGSGEDGSAANGRLWRTVIIGEQEHRIDLHMIRPYMKVVTHGGYYGEGLNAIIVFAACFLPDSSSPDYHYIMENLFLYVISSLELLVAEDYMIVYLNGATPRRRMPGIGWLKKCYHMIDRRLRKNLKSLIIVHPSWFIRTVLAISRPFISVKFISKIQYVHSLEELEQLIPMEHVQLPACVLQYEEQRLRAKRESARPPQPEFLLPRSEEKPETVEEEDRAAEVTEDQETSMS
B8: LRRFIP2 (protein, UniProt Q4V7E8 1-437)
chain: MGTPGSGRKRTPVKDRFSAEDEALSNIAREAEARLAAKRAARAEARDIRMRELERQQRESSSKDITGTHWSRASTPKRRDMMYDSIKDRSSRVSSLLDEKSDKQYAENYTRPSSRNSASATTPLSGNSSRRGSGDTSSLIDPDTSLSELRESLSEVEEKYKKAMVSNAQLDNEKNNLIYQVDTLKDVIEEQEEQMAEFYRENEEKSKELERQKHMCSVLQHKMDELKEGLRQRDELIEKHGLVIIPESTPNGDVNHEPVVGAITAVSQEAAQVLESAGEGPLDVRLRKLAEEKDELLSQIRKLKLQLEEERQKCSRNDGMSGDLAGLQNGSDLQFIEMQRDANRQISEYKFKLSKAEQDIATLEQSISRLEGQVLRYKTAAENAEKIEDELKAEKRKLQRELRTAQDKIEEMEMTNSHLAKRLEKMKANRTALLAQQ

The binders below were run against Death-associated protein kinase 1 (rat (endogenous in primary cortical neurons and brain)) (assay: affinity purification with mass spectrometry; rabbit anti-DAPK1 antibody covalently attached to Dynabeads, incubated with 50 mg protein extracts of rat cortical neurons (control or OGD, 30 min after OGD); eluted in TCA, trypsin digest, LC-MS/MS (LTQ-Orbitrap XL); non-specific antibody as negative control).
In the case of B1, the binding is reported as “binds”. In the case of B2, the binding is reported as “binds”. For B3, the binding was “binds”. With B4 the binding was “binds”. B5 was tested, and the binding was “binds”. With B6 the binding was “binds”. With B7 the binding was “binds”. For B8, the binding was “binds”.
